According to article PMC7740640 (Xenobiotica; the fate of foreign compounds in biological …, 2020):

System: human liver microsomes (HLM)
Assay: Inhibition of C152 metabolism, HLM
Format: biochemical
Conditions: 30 μM C152 as substrate

With `Clc1ccccc1C(c1ccccc1)(c1ccccc1)n1ccnc1` [CTZ, clotrimazole] the IC50 was 240 ± 50 nM and the “Inhibition (maximal amplitude)” value was 71±2%.
